# Test results from ChEMBL document CHEMBL5674883, “The Heterochromatin Landscape in Migrating Cells and the Importance of H3K27me3 for Associated Transcriptome Alterations” (Cells, 2018).
# Protein sequences, listed by entry. Tags and fused reporters are not part of them.
# UniProt Q61188, whole entry: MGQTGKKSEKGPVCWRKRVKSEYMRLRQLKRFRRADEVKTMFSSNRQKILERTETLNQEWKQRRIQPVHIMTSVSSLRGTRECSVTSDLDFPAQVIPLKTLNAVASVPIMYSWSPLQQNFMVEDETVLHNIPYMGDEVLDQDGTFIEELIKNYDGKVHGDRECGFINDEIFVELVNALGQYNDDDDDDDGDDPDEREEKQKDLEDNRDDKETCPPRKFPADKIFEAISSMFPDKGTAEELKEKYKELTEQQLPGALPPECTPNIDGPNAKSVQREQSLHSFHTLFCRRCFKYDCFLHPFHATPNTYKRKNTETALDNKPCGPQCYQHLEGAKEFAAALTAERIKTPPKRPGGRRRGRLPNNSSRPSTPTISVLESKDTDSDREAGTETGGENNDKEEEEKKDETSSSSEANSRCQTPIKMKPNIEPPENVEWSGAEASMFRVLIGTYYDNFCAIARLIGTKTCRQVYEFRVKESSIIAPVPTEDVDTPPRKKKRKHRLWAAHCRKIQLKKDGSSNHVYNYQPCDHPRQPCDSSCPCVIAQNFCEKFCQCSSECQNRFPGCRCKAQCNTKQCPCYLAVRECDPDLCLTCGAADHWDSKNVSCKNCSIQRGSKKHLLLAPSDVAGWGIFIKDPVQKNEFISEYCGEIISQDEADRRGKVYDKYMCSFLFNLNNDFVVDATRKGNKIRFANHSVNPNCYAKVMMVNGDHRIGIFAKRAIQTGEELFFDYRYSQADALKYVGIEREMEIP
# Further values from the same series stand in other lists.
# Assays:
# Assay type in all cases: cell-based
# [1] = target: Histone-lysine N-methyltransferase EZH2 (Mus musculus) (UniProt Q61188); assay: Inhibition of EZH2 in mouse B16-F1 migrating cells assessed as fold change in H3K27me3-buffered regulated Mmp11-mRNA expression at 3 uM measured by ChIP-seq analysis relative to control cells
# [2] = target: Histone-lysine N-methyltransferase EZH2 (Mus musculus) (UniProt Q61188); assay: Inhibition of EZH2 in mouse B16-F1 migrating cells assessed as fold change in H3K27me3-buffered regulated Lpar6-mRNA expression at 3 uM measured by ChIP-seq analysis relative to control cells
# [3] = target: Histone-lysine N-methyltransferase EZH2 (Mus musculus) (UniProt Q61188); assay: Inhibition of EZH2 in mouse B16-F1 migrating cells assessed as fold change in H3K27me3-buffered regulated Ppp1r15a-mRNA expression at 3 uM measured by ChIP-seq analysis relative to control cells
# [4] = target: Histone-lysine N-methyltransferase EZH2 (Mus musculus) (UniProt Q61188); assay: Inhibition of EZH2 in mouse B16-F1 migrating cells assessed as fold change in H3K27me3-buffered regulated Zfp101-mRNA expression at 3 uM measured by ChIP-seq analysis relative to control cells
# [5] = target: Histone-lysine N-methyltransferase EZH2 (Mus musculus) (UniProt Q61188); assay: Inhibition of EZH2 in mouse B16-F1 migrating cells assessed as fold change in H3K27me3-independent regulated Pygl-mRNA expression at 3 uM measured by ChIP-seq analysis relative to control cells
# [6] = target: Histone-lysine N-methyltransferase EZH2 (Mus musculus) (UniProt Q61188); assay: Inhibition of EZH2 in mouse B16-F1 migrating cells assessed as fold change in H3K27me3-buffered regulated Ccnl1-mRNA expression at 3 uM measured by ChIP-seq analysis relative to control cells
# [7] = target: Histone-lysine N-methyltransferase EZH2 (Mus musculus) (UniProt Q61188); assay: Inhibition of EZH2 in mouse B16-F1 migrating cells assessed as fold change in H3K27me3-buffered regulated 9930012K11Rik-mRNA expression at 3 uM measured by ChIP-seq analysis relative to control cells
# [8] = target: Histone-lysine N-methyltransferase EZH2 (Mus musculus) (UniProt Q61188); assay: Inhibition of EZH2 in mouse B16-F1 migrating cells assessed as fold change in H3K27me3-buffered regulated Tnfaip8-mRNA expression at 3 uM measured by ChIP-seq analysis relative to control cells
# [9] = target: Histone-lysine N-methyltransferase EZH2 (Mus musculus) (UniProt Q61188); assay: Inhibition of EZH2 in mouse B16-F1 migrating cells assessed as fold change in H3K27me3-buffered regulated Skp2-mRNA expression at 3 uM measured by ChIP-seq analysis relative to control cells
# [10] = target: Histone-lysine N-methyltransferase EZH2 (Mus musculus) (UniProt Q61188); assay: Inhibition of EZH2 in mouse B16-F1 migrating cells assessed as fold change in H3K27me3-independent regulated Shb-mRNA expression at 3 uM measured by ChIP-seq analysis relative to control cells
# [11] = target: T1, RNA polymerase II (Mus musculus) (UniProt P08775+Q8CFI7+P97760+A0A3Q4L2S8+Q80UW8+P61219+P62488+Q923G2+P60898+O08740+Q63871+P62876); assay: Inhibition of RNA polymerase II in mouse B16-F1 migrating cells assessed as fold change in Washc4-RNA stability at 0.1 mM measured by ChIP-seq analysis relative to control cells
# [12] = target: T1, RNA polymerase II (Mus musculus); assay: Inhibition of RNA polymerase II in mouse B16-F1 migrating cells assessed as fold change in Timm21-RNA stability at 0.1 mM measured by ChIP-seq analysis relative to control cells
# [13] = target: T1, RNA polymerase II (Mus musculus); assay: Inhibition of RNA polymerase II in mouse B16-F1 migrating cells assessed as fold change in Fer-RNA stability at 0.1 mM measured by ChIP-seq analysis relative to control cells
# [14] = target: T1, RNA polymerase II (Mus musculus); assay: Inhibition of RNA polymerase II in mouse B16-F1 migrating cells assessed as fold change in Dbt-RNA stability at 0.1 mM measured by ChIP-seq analysis relative to control cells
# [15] = target: T1, RNA polymerase II (Mus musculus); assay: Inhibition of RNA polymerase II in mouse B16-F1 migrating cells assessed as fold change in Cib1-RNA stability at 0.1 mM measured by ChIP-seq analysis relative to control cells
# [16] = target: T1, RNA polymerase II (Mus musculus); assay: Inhibition of RNA polymerase II in mouse B16-F1 migrating cells assessed as fold change in Usp38-RNA stability at 0.1 mM measured by ChIP-seq analysis relative to control cells
# [17] = target: T1, RNA polymerase II (Mus musculus); assay: Inhibition of RNA polymerase II in mouse B16-F1 migrating cells assessed as fold change in Ppfibp1-RNA stability at 0.1 mM measured by ChIP-seq analysis relative to control cells
# [18] = target: T1, RNA polymerase II (Mus musculus); assay: Inhibition of RNA polymerase II in mouse B16-F1 migrating cells assessed as fold change in Ptgds-RNA stability at 0.1 mM measured by ChIP-seq analysis relative to control cells
# [19] = target: T1, RNA polymerase II (Mus musculus); assay: Inhibition of RNA polymerase II in mouse B16-F1 migrating cells assessed as fold change in Herc6-RNA stability at 0.1 mM measured by ChIP-seq analysis relative to control cells
# [20] = target: T1, RNA polymerase II (Mus musculus); assay: Inhibition of RNA polymerase II in mouse B16-F1 migrating cells assessed as fold change in Sltm-RNA stability at 0.1 mM measured by ChIP-seq analysis relative to control cells
# [21] = target: T1, RNA polymerase II (Mus musculus); assay: Inhibition of RNA polymerase II in mouse B16-F1 migrating cells assessed as fold change in Ythdf3-RNA stability at 0.1 mM measured by ChIP-seq analysis relative to control cells
# [22] = target: T1, RNA polymerase II (Mus musculus); assay: Inhibition of RNA polymerase II in mouse B16-F1 migrating cells assessed as fold change in Pcm1-RNA stability at 0.1 mM measured by ChIP-seq analysis relative to control cells
# [23] = target: T1, RNA polymerase II (Mus musculus); assay: Inhibition of RNA polymerase II in mouse B16-F1 migrating cells assessed as fold change in Postn-RNA stability at 0.1 mM measured by ChIP-seq analysis relative to control cells
# [24] = target: T1, RNA polymerase II (Mus musculus); assay: Inhibition of RNA polymerase II in mouse B16-F1 migrating cells assessed as fold change in 4930503L19Rik-RNA stability at 0.1 mM measured by ChIP-seq analysis relative to control cells
# [25] = target: T1, RNA polymerase II (Mus musculus); assay: Inhibition of RNA polymerase II in mouse B16-F1 migrating cells assessed as fold change in Rab4a-RNA stability at 0.1 mM measured by ChIP-seq analysis relative to control cells
# [26] = target: T1, RNA polymerase II (Mus musculus); assay: Inhibition of RNA polymerase II in mouse B16-F1 migrating cells assessed as fold change in Ero1l-RNA stability at 0.1 mM measured by ChIP-seq analysis relative to control cells
# [27] = target: T1, RNA polymerase II (Mus musculus); assay: Inhibition of RNA polymerase II in mouse B16-F1 migrating cells assessed as fold change in Qk-RNA stability at 0.1 mM measured by ChIP-seq analysis relative to control cells
# [28] = target: T1, RNA polymerase II (Mus musculus); assay: Inhibition of RNA polymerase II in mouse B16-F1 migrating cells assessed as fold change in Hnrnpm-RNA stability at 0.1 mM measured by ChIP-seq analysis relative to control cells
# [29] = target: T1, RNA polymerase II (Mus musculus); assay: Inhibition of RNA polymerase II in mouse B16-F1 migrating cells assessed as fold change in Atad1-RNA stability at 0.1 mM measured by ChIP-seq analysis relative to control cells
# [30] = target: T1, RNA polymerase II (Mus musculus); assay: Inhibition of RNA polymerase II in mouse B16-F1 migrating cells assessed as fold change in Myo1h-RNA stability at 0.1 mM measured by ChIP-seq analysis relative to control cells
compound,measurement,setting,value
CCCc1cc(C)[nH]c(=O)c1CNC(=O)c1cc(-c2ccnc(N3CCN(C)CC3)c2)cc2c1cnn2C(C)C,log2FC,[1],-0.76
same,log2FC,[2],-0.5
same,log2FC,[3],0.55
same,log2FC,[4],-0.47
same,log2FC,[5],0.61
same,log2FC,[6],-0.53
same,log2FC,[7],-0.59
same,log2FC,[8],-0.48
same,log2FC,[9],-0.41
same,log2FC,[10],0.63
OC[C@H]1O[C@@H](n2cnc3cc(Cl)c(Cl)cc32)[C@H](O)[C@@H]1O,log2FC,[11],-0.54
same,log2FC,[12],-0.57
same,log2FC,[13],-0.45
same,log2FC,[14],-0.86
same,log2FC,[15],0.47
same,log2FC,[16],-0.69
same,log2FC,[17],-0.41
same,log2FC,[18],0.64
same,log2FC,[19],-0.66
same,log2FC,[20],-0.86
same,log2FC,[21],-0.41
same,log2FC,[22],-0.69
same,log2FC,[23],-0.89
same,log2FC,[24],-0.96
same,log2FC,[25],0.58
same,log2FC,[26],0.61
same,log2FC,[27],-0.63
same,log2FC,[28],-0.52
same,log2FC,[29],-0.49
same,log2FC,[30],0.92
